Laboratory results: PubChem BioAssay AID1259425 (University of Nebraska Medical Center, 2018)
Here is an unselected part of about 14,000 reagents. The record does not give: the time to read-out.

- Assay: 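Find knockdowns that reproduce the gene expression pattern seen when KSR1 is lost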 (primary screen)
- Cells: HCT116 human colon cancer cells
- Reagent: siRNA pool against human genes, 50 nM siRNA
- Read-out: 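mRNA of six signature genes measured together by branched-DNA assay after 50 nM siRNA pool, blank removed, divided by geometric mean of two housekeeping genes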
- Reading the numbers: BNIP3L mRNA: higher = more BNIP3L transcript after knockdown; NDRG1 mRNA: higher = more NDRG1 transcript after knockdown; BNIP3 mRNA: higher = more BNIP3 transcript after knockdown; ALDOC mRNA: higher = more ALDOC transcript after knockdown; ACSL5 mRNA: higher = more ACSL5 transcript after knockdown

no.	gene	PubChem SID	BNIP3L mRNA, set 1	NDRG1 mRNA, set 1	BNIP3 mRNA, set 1	ALDOC mRNA, set 1	ACSL5 mRNA, set 1
1	RNF25 (ring finger protein 25)	SID364002440	0.0705	0.231	0.465	0.0157	0.289
2	DYNLT1 (dynein light chain Tctex-type 1)	SID363997315	0.071	0.0756	0.327	0.0467	0.0817
3	OR7E35P (olfactory receptor family 7 subfamily E member 35 pseudogene)	SID363991333	0.0911	0.17	0.311	0.0141	0.163
4	EHMT1 (euchromatic histone lysine methyltransferase 1)	SID364003032	0.22	0.125	0.325	0.089	0.15
5	DENND3 (DENN domain containing 3)	SID363999224	0.111	0.214	0.241	0.0321	0.101
6	FAP (fibroblast activation protein alpha)	SID363995442	0.0483	0.253	0.285	0.00989	0.191
7	TULP1 (TUB like protein 1)	SID363994438	0.149	0.299	0.361	0.0205	0.182
8	SLC28A2	SID363995212	0.0343	0.17	0.185	0.0509	0.229
9	PTPRC (protein tyrosine phosphatase receptor type C)	SID363993994	0.0627	0.156	0.232	0.0119	0.129
10	TPRA1 (transmembrane protein adipocyte associated 1)	SID364000070	0.15	0.097	0.307	0.0535	0.134
11	MRPS31 (mitochondrial ribosomal protein S31)	SID363996705	0.112	0.261	0.413	0.0413	0.198
12	DLX2 (distal-less homeobox 2)	SID363995388	0.143	0.0758	0.177	0.0122	0.12
13	APLN (apelin)	SID364000294	0.0724	0.173	0.21	0.0308	0.211
14	COL12A1 (collagen type XII alpha 1 chain)	SID363995356	0.0509	0.112	0.329	0.0263	0.101
15	PARN (poly(A)-specific ribonuclease)	SID363993751	0.14	0.381	0.243	0.0165	0.26
16	ANGPTL2 (angiopoietin like 2)	SID363998047	0.136	0.252	0.339	0.0222	0.214
17	GBGT1	SID364002273	0.0686	0.116	0.582	0.016	0.0805
18	UCP1 (uncoupling protein 1)	SID364002211	0.116	0.0867	0.239	0.0157	0.193
19	VTCN1 (V-set domain containing T cell activation inhibitor 1)	SID364002925	0.167	0.619	0.355	0.0539	0.312
20	SSNA1 (SS nuclear autoantigen 1)	SID363994798	0.175	0.371	0.256	0.0264	0.112
21	AKR1C1 (aldo-keto reductase family 1 member C1)	SID363992630	0.0794	0.226	0.21	0.0459	0.102
22	POP4 (POP4 ribonuclease P/MRP subunit)	SID363997415	0.0633	0.181	0.255	0.0209	0.1
23	TNNI1 (troponin I1, slow skeletal type)	SID363994400	0.0979	0.0862	0.12	0.00738	0.34
24	CNOT3 (CCR4-NOT transcription complex subunit 3)	SID363998918	0.102	0.442	0.322	0.00531	0.137
25	ATG2A (autophagy related 2A)	SID364005336	0.246	0.122	0.256	0.0396	0.216
26	PCDHA13 (protocadherin alpha 13)	SID364001231	0.0839	0.168	0.303	0.0131	0.177
27	ALG6 (ALG6 alpha-1,3-glucosyltransferase)	SID363998449	0.096	0.173	0.288	0.0181	0.179
28	ZBED4 (zinc finger BED-type containing 4)	SID364005560	0.0956	0.154	0.188	0.0555	0.225
29	ZNF385B (zinc finger protein 385B)	SID364004723	0.117	0.14	0.317	0.0368	0.18
30	SNRPA (small nuclear ribonucleoprotein polypeptide A)	SID363995566	0.158	0.308	0.304	0.0345	0.117
31	CRYGA (crystallin gamma A)	SID363998986	0.119	0.291	0.281	0.0577	0.274
32	ZNF703 (zinc finger protein 703)	SID364003231	0.288	0.694	0.546	0.129	0.274
33	FARSA (phenylalanyl-tRNA synthetase subunit alpha)	SID363995443	0.156	0.866	0.381	0.0145	0.223
34	SLC16A5	SID363995655	0.215	0.604	0.472	0.0391	0.258
35	RAB11FIP4 (RAB11 family interacting protein 4)	SID364004276	0.126	0.429	0.216	0.0419	0.255
36	ZMYM1 (zinc finger MYM-type containing 1)	SID364003045	0.222	0.106	0.442	0.0396	0.187
37	ARHGAP4 (Rho GTPase activating protein 4)	SID363992890	0.055	0.192	0.293	0.0147	0.148
38	TP53INP2 (tumor protein p53 inducible nuclear protein 2)	SID364002089	0.203	0.572	0.523	0.0528	0.197
39	OLFM4 (olfactomedin 4)	SID363997229	0.143	1.5	0.281	0.0242	0.382
40	SEPHS2 (selenophosphate synthetase 2)	SID363998171	0.0578	0.0619	0.124	0.00831	0.0994
41	MPPE1 (metallophosphoesterase 1)	SID364002634	0.174	0.314	0.268	0.0232	0.0914
42	CCDC68 (coiled-coil domain containing 68)	SID364003318	0.209	0.408	0.546	0.0665	0.153
43	RFPL3 (ret finger protein like 3)	SID363997394	0.0693	0.0739	0.24	0.0434	0.0782
44	ST8SIA1 (ST8 alpha-N-acetyl-neuraminide alpha-2,8-sialyltransferase 1)	SID363994183	0.455	2.25	0.82	0.0854	0.485
45	BTN2A3P (butyrophilin subfamily 2 member A3, pseudogene)	SID364002682	0.151	0.189	0.427	0.0287	0.215
46	DMRT2 (doublesex and mab-3 related transcription factor 2)	SID364004948	0.239	0.254	1.01	0.0349	0.103
47	PSMD1 (proteasome 26S subunit, non-ATPase 1)	SID363993964	0.515	1.09	0.558	0.176	0.169
48	GET4 (guided entry of tail-anchored proteins factor 4)	SID363999744	0.0952	0.0861	0.19	0.0321	0.133
49	SHB (SH2 domain containing adaptor protein B)	SID363994177	0.0743	0.126	0.211	0.0313	0.165
50	KRT76 (keratin 76)	SID363999677	0.122	0.55	0.209	0.0295	0.175
51	ZNF157 (zinc finger protein 157)	SID363994547	0.175	0.216	0.225	0.132	0.19
52	NKAP (NFKB activating protein)	SID364002849	0.109	0.456	0.378	0.0387	0.185
53	ZFHX4 (zinc finger homeobox 4)	SID364003003	0.294	0.42	0.409	0.0287	0.529
54	CTNNA3 (catenin alpha 3)	SID363998390	0.0828	0.157	0.23	0.0716	0.161
55	CACNA1H (calcium voltage-gated channel subunit alpha1 H)	SID364002007	0.159	0.272	0.194	0.0203	0.14
56	RGL4 (ral guanine nucleotide dissociation stimulator like 4)	SID364004779	0.129	0.237	0.556	0.031	0.146
57	LRP2 (LDL receptor related protein 2)	SID363995499	0.135	0.271	0.208	0.0443	0.162
58	LEPR (leptin receptor)	SID363993501	0.066	0.15	0.268	0.0102	0.12
59	ZDHHC9 (zDHHC palmitoyltransferase 9)	SID363999810	0.14	0.0992	0.293	0.0197	0.117
60	USP34 (ubiquitin specific peptidase 34)	SID364005367	0.0876	0.141	0.341	0.027	0.103
61	MRPS35 (mitochondrial ribosomal protein S35)	SID364002201	0.0865	0.167	0.433	0.0284	0.146
62	ZFP36 (ZFP36 zinc finger CCCH-type)	SID363994515	0.0838	0.186	0.349	0.0295	0.204
63	ZKSCAN3 (zinc finger with KRAB and SCAN domains 3)	SID364002823	0.184	0.209	0.438	0.0476	0.14

Part of the list above, reduced to “ACSL5 mRNA, set 1”.
DENND3 (DENN domain containing 3) [SID363999224]: 0.101
FAP (fibroblast activation protein alpha) [SID363995442]: 0.191
TULP1 (TUB like protein 1) [SID363994438]: 0.182
SLC28A2 [SID363995212]: 0.229
